According to PubChem BioAssay AID2685 (National Center for Advancing Translational Sciences (NCATS), 2010):
The list shows a part of the results. These are further read-outs of the screen, such as a control signal, another cell line or another target. No call is given for them. Compounds called inactive in the main read-out are mostly missing here. The note in brackets gives the kind of curve behind each potency; many fits are weak.

Assay: qHTS Assay for Lipid Storage Modulators in Drosophila S3 Cells;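 for cell number change: cells counted by Cell Tracker Red CMTPX staining in the red channel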
Settings: BODIPY lipid droplet fluorescence, 18-24 h; for cell number change: measured here: cell count max response, cells fed with added oleic acid
Procedure, shortened: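 Drosophila S3 cells got compounds at several concentrations plus oleic acid (400 uM solution). Laser-scanning cytometry with 488 nm excitation read lipid droplets at 500-530 nm and cells at 575-640 nm. Percent activity was relative to 20 uM Triacsin C.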

[1] = measured here: cell number channel AC50, cells fed with added oleic acid
[2] = measured here: lipid fluorescence (Fed channel) AC50, cells fed with added oleic acid

SMILES	cell number change	AC50 [1]	AC50 [2]
COc1cc(/C=C2/CC(C)OC2=O)c([N+](=O)[O-])cc1OC (configuration not stated)	-13%		
COc1ccc(NC(=O)CNS(=O)(=O)c2ccc(Cl)cc2)cc1OC	0.344%	0.58 µM [falling, single point]	8.2 µM [rising, partial curve]
O=c1c2c(nc3nc[nH]n13)CCC2	-58.8%	23.1 µM [falling, single point]	
COc1ccc(OC)c(NC(=O)c2ccc(S(=O)(=O)N3CCN(C)CC3)cc2)c1	15.8%		3.66 µM [rising, partial curve]
CC1CCN(S(=O)(=O)c2cc(C(=O)Nc3ccccn3)ccc2Br)CC1	-25%	0.058 µM [falling, full curve, poor fit]	1.46 µM [falling, single point]
COc1ccc(NC(=S)N2CCC(C(=O)N3CCCCCC3)CC2)cc1	75.2%	20.6 µM [rising, single point]	
COc1ccc(/C=C\c2nc(=O)c3ccccc3o2)cc1	-27.7%		29.1 µM [falling, single point]
COc1ccccc1Nc1nnc(SCC(=O)N2CCCC2=O)s1	62%	0.00651 µM [rising, full curve, poor fit]	0.0184 µM [rising, full curve]
NC(=O)COc1ncnc2scc(-c3ccc(F)cc3)c12	44.3%	0.184 µM [rising, full curve]	0.116 µM [rising, full curve]
O=C(CN1CCN(c2ccccn2)CC1)NCc1cccs1	14.3%		0.58 µM [falling, full curve]
O=C1c2ccccc2S(=O)(=O)N1CC1CC(c2ccccc2)=NO1 (configuration not stated)	14%		2.06 µM [rising, full curve, poor fit]
N#CC(C(=O)O)=C1CCCC1			20.6 µM [falling, single point]
Cc1ccc(CC(=O)NCC(O)c2ccccc2)cc1 (configuration not stated)	19.4%		0.517 µM [rising, full curve]
Cc1ccc(-n2c(SCC(N)=O)nnc2-c2ccco2)cc1	8.52%		
COc1cccc(C(=O)NCc2ccc3c(c2)cc(C)n3C)c1	-4.69%		
O=C(CSc1c2c(nc3cc(Cl)ccc13)CCCC2)NCCCN1CCOCC1	-13.8%		4.11 µM [falling, single point]
COc1ccc(S(=O)(=O)CC2(O)CCN(C(=O)C(C)(C)C)CC2)cc1	35.6%	29.1 µM [rising, single point]	29.1 µM [rising, single point]
CN1C(C)(C)c2ccccc2OS1(=O)=O	7.77%		
Cc1cc2oc(=O)cc(Cn3ccnc3)c2cc1Cl	20.7%		2.06 µM [rising, full curve, poor fit]
CSCC[C@H](NC(=O)C1CCN(S(=O)(=O)c2ccccc2)CC1)C(=O)NC1CC1			0.651 µM [rising, single point]

Already shown: 11 of the compounds above.
SMILES	cell number change	AC50 [1]	AC50 [2]
COc1ccc(NC(=O)CNS(=O)(=O)c2ccc(Cl)cc2)cc1OC	0.344%	0.58 µM [falling, single point]	8.2 µM [rising, partial curve]
O=c1c2c(nc3nc[nH]n13)CCC2	-58.8%	23.1 µM [falling, single point]	
COc1ccc(OC)c(NC(=O)c2ccc(S(=O)(=O)N3CCN(C)CC3)cc2)c1	15.8%		3.66 µM [rising, partial curve]
CC1CCN(S(=O)(=O)c2cc(C(=O)Nc3ccccn3)ccc2Br)CC1	-25%	0.058 µM [falling, full curve, poor fit]	1.46 µM [falling, single point]
COc1ccc(NC(=S)N2CCC(C(=O)N3CCCCCC3)CC2)cc1	75.2%	20.6 µM [rising, single point]	
COc1ccc(/C=C\c2nc(=O)c3ccccc3o2)cc1	-27.7%		29.1 µM [falling, single point]
COc1ccccc1Nc1nnc(SCC(=O)N2CCCC2=O)s1	62%	0.00651 µM [rising, full curve, poor fit]	0.0184 µM [rising, full curve]
NC(=O)COc1ncnc2scc(-c3ccc(F)cc3)c12	44.3%	0.184 µM [rising, full curve]	0.116 µM [rising, full curve]
O=C(CN1CCN(c2ccccn2)CC1)NCc1cccs1	14.3%		0.58 µM [falling, full curve]
O=C1c2ccccc2S(=O)(=O)N1CC1CC(c2ccccc2)=NO1 (configuration not stated)	14%		2.06 µM [rising, full curve, poor fit]
N#CC(C(=O)O)=C1CCCC1			20.6 µM [falling, single point]

Next part:

SMILES	cell number change	AC50 [1]	AC50 [2]
CCN(CC)c1ccc(NC(=O)COC(=O)CCC(=O)c2cccs2)cc1	-2.46%		0.58 µM [rising, single point]
CC(C)c1ccc(/C=N/NC(=O)c2c(Cl)cnn2C)cc1	-1.07%		1.46 µM [rising, partial curve]
O=C(CCc1[nH]c2ccccc2c1Sc1ccccc1)N(CCO)CCO	-20.9%		29.1 µM [falling, single point]
COc1ccccc1NC(=O)CC(NCCN(C)C)C(=O)O (configuration not stated)	-170%	23.1 µM [falling, partial curve, poor fit]	18.4 µM [falling, partial curve]
COc1ccc(NC(=O)c2cc(-c3ccccc3)nc3c2c(C)nn3-c2ccccc2)c(OC)c1	17.2%		20.6 µM [rising, partial curve]
O=C(Nc1ccc2ccccc2c1)N1CCN(c2ncccc2C(F)(F)F)CC1	-11.7%		0.731 µM [falling, single point]
O=C(CNS(=O)(=O)c1ccccc1)NCc1ccco1	18.4%		29.1 µM [rising, single point]
COc1cccc(/C=C2/SC(=S)N(CCCC(=O)Nc3ccc(O)cc3)C2=O)c1	-44.6%	16.4 µM [falling, single point]	11.6 µM [falling, partial curve]
O=C(c1ccco1)N1CCN(c2cc(C(F)(F)F)nc3ncnn23)CC1	3.56%		5.17 µM [falling, partial curve]
COc1ccc(C(=O)OCC(=O)Nc2ccc3c(c2)OCO3)cc1S(=O)(=O)N1CCOCC1	-35%	32.6 µM [falling, single point]	29.1 µM [falling, single point]
COc1ccc(CNC(=O)CCSCc2ccc(C)cc2)cc1	29.3%		32.6 µM [rising, single point]
O=C(O)Cc1ccc(NC(=O)COc2ccc3ccccc3c2)cc1	43.1%		0.103 µM [rising, full curve]
O=C(NCCCN1CCOCC1)c1ccc(S(=O)(=O)N2CCOCC2)cc1	-54.1%	29.1 µM [falling, single point]	0.116 µM [falling, full curve, poor fit]
COc1ccc(OCC(O)CN2CCCCC2)cc1 (configuration not stated)			29.1 µM [rising, single point]
CCCc1[nH]n(-c2nc3ccccc3s2)c(=O)c1C=NCCN1CCOCC1	35.7%	6.51 µM [rising, partial curve]	
O=S(=O)(c1cccc(C(F)(F)F)c1)N1CCC(c2nc3ccccc3[nH]2)CC1			0.58 µM [falling, full curve]
CCNC(=S)N/N=C/c1cn(Cc2ccc(F)cc2)c2ccccc12	-11.6%		1.84 µM [rising, full curve, poor fit]
Cc1ccc(S(=O)(=O)Nc2cc(C)c(O)c(Sc3n[nH]c(C)n3)c2)cc1	-11.7%		29.1 µM [rising, single point]
Cc1cccc(CN2CCc3c(OCC(=O)N4CCCc5ccccc54)cccc3C2=O)c1	-30.9%	29.1 µM [falling, single point]	23.1 µM [falling, single point]
CC(=O)c1c(C(C)=O)c(C)n(-c2ccc(N)cc2)c1C	38.2%	7.31 µM [rising, partial curve]	

SMILES	cell number change	AC50 [1]	AC50 [2]
Cc1noc(C)c1S(=O)(=O)Nc1ccc(C(=O)NCCc2ccccc2)cc1	3.43%		0.58 µM [falling, single point]
CC(C)c1onc(C(=O)N2CCN(c3ccc(F)cc3)CC2)c1[N+](=O)[O-]			3.66 µM [rising, single point]
O=C(CNC(=O)c1ccccc1)OCC(=O)N1c2ccccc2Sc2ccccc21	-60.8%	29.1 µM [falling, single point]	0.411 µM [falling, full curve]
O=C(O)C1C2C=CC(O2)C1C(=O)Nc1ccccc1C(F)(F)F (configuration not stated)	1.26%		0.651 µM [falling, single point]
O=C(Cn1cnc2c(nnn2Cc2ccc(F)cc2)c1=O)NCc1ccc(F)cc1	-8.05%	1.16 µM [falling, single point]	1.16 µM [falling, single point]
O=[N+]([O-])c1ccc(COc2cccnc2)cc1	90.9%	20.6 µM [rising, single point]	
CN1C(=S)N(c2ccccc2)C(=O)/C1=C/c1cccs1	7.88%		9.2 µM [rising, partial curve, poor fit]
CCOc1cc(-c2nc(-c3ccccc3)c(-c3cc([N+](=O)[O-])ccc3C)[nH]2)ccc1O	-40.1%	7.31 µM [falling, partial curve]	13 µM [falling, partial curve]
CC1CN(c2oc(COc3ccc(Cl)cc3Cl)nc2C#N)CC(C)O1 (configuration not stated)	-25.7%		29.1 µM [falling, single point]
COc1ccc(CCNC(=O)c2cc(C3CC3)on2)cc1OC	-1.17%		0.0517 µM [falling, full curve, poor fit]
CC(C)(C)SCCNC(=O)c1ccc(CN2CCc3ccccc3C2)cc1	10.4%		1.84 µM [rising, partial curve, poor fit]
CC1CCCCN1C(=O)Nc1ccccc1Cl (configuration not stated)	17.3%	0.731 µM [falling, single point]	0.731 µM [falling, single point]
Cc1nc(C#N)c(N/N=C/c2cccc(Cl)c2)o1	27.3%		
Cn1cnc2cc(NCc3ccccc3O)ccc21	-30.7%	5.8 µM [falling, full curve, poor fit]	
CSc1cccc(CNC(=O)C2CCC(=O)N(CCCN3CCCC3=O)C2)c1 (configuration not stated)	-10.3%		14.6 µM [rising, partial curve]
CCn1c(C(=O)NCCCc2ccccc2)cc2sccc21	7.49%		0.206 µM [rising, full curve, poor fit]
Cc1nnc(SCC(=O)Nc2ccc3c(c2)OCO3)n(N)c1=O	5.55%		6.51 µM [falling, single point]
O=C(COC(=O)c1ccc(O)cc1O)Nc1nnc(-c2ccccc2)o1	22.5%		
CC(C)c1ccc(C(=O)N2CCCN(C(=O)c3ccc(C(C)C)cc3)CC2)cc1	-38.5%	16.4 µM [falling, single point]	29.1 µM [falling, single point]
